From patent US20080108661A1, “Medicaments” (AstraZeneca AB, priority 2006, published 2008)

Legend:
[1] = test system: murine articular knee joint; conditions: all doses; comparable to basal levels of control samples (FIG. 1)
Source text: (iii) In Vivo Functional Validation of Histamine-Induced Responses Murine Articular Knee Joint
It is hypothesised that histamine released by trafficking mast cells or by the de novo synthesis of histamine by articular chondrocytes induces a H1-dependant increase in COX-2 mRNA expression and elevated PGE2 synthesis in synovial fibroblasts and articular chondrocytes. To evaluate the role of histamine in pathological processes in the joint, a pharmacodynamic mouse model was developed to investigate the effect of intra-articular injection (IAI) of histamine on joint swelling using calliper measurements, and measuring PGE2 and/or 11-6 levels from synovial knee joint ravages.
Adult C57B16 mice were dosed with either vehicle or test compound 1 hour prior to intra-articular injection of histamine (5 μmol). Swelling was induced by injection of 6 μl of histamine/saline suspension into the knee joint cavity under inhalation anaesthesia with isoflurane. Joint swelling was quantified by calliper measurements taken at 1, 6, 12, 24, 36 and 48 hr. Terminal synovial fluid knee lavages were sampled and levels of the inflammatory mediator I1-6 were measured in the fluid from synovial knee joint ravages.

[2] = test system: human articular chondrocytes (HAC); conditions: 10 nM (FIG. 2)
[3] = test system: human articular chondrocytes (HAC); conditions: 10 nM

Clc1ccc2c(c1)CCc1cccnc1C2=C1CCNCC1 [desloratadine]
inhibition of histamine-induced IL-6 release in joint lavage [1]: significantly inhibited | inhibition of histamine-induced PGE2 release [2]: inhibited | inhibition of histamine-induced increase in Cox2 mRNA expression [3]: inhibited
